Measured values published in article doi:10.1101/551317.
These are yes or no findings as the source states them, for the method shown. Tags and fused reporters may be left off the sequences shown.

The chains behind the UniProt entries cited, without tags or fusion partners.
UniProt Q6Q1P4: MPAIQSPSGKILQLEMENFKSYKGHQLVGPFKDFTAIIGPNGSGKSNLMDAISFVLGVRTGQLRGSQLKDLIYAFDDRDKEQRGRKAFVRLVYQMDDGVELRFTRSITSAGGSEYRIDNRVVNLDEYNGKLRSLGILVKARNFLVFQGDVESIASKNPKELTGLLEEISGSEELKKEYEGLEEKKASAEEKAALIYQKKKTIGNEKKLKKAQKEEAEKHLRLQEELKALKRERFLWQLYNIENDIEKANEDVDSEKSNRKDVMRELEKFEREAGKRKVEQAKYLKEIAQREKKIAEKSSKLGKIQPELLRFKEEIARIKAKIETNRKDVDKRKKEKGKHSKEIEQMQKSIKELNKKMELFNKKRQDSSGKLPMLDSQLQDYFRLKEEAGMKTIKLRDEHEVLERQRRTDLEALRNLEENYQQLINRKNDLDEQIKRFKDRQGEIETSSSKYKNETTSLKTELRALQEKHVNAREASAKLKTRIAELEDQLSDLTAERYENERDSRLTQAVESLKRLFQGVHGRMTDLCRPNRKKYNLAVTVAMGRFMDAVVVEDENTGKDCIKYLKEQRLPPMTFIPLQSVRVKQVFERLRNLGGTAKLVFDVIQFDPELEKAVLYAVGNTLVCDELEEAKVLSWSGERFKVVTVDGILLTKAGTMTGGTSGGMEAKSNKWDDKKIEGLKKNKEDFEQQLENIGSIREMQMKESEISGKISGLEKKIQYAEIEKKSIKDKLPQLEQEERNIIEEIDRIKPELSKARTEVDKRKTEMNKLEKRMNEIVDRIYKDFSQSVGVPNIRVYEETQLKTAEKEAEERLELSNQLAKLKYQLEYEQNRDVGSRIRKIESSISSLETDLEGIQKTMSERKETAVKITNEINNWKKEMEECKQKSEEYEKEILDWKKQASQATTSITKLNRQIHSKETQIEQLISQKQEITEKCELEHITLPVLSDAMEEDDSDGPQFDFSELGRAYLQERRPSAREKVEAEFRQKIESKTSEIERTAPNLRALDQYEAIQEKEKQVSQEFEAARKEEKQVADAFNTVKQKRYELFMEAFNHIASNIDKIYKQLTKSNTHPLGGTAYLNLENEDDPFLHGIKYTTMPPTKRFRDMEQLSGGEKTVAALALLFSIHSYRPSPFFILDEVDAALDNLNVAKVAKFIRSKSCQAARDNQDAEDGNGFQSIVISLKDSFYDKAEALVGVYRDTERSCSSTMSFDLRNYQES

What was measured:
[1] = target: SMC1, yeast two-hybrid fusion (Arabidopsis thaliana) (UniProt Q6Q1P4); assay: two-hybrid
[2] = target: T1, WINGS APART-LIKE 1 (WAPL1), yeast two-hybrid fusion (Arabidopsis thaliana) (UniProt F4I7C7); assay: two-hybrid
T1 sequence: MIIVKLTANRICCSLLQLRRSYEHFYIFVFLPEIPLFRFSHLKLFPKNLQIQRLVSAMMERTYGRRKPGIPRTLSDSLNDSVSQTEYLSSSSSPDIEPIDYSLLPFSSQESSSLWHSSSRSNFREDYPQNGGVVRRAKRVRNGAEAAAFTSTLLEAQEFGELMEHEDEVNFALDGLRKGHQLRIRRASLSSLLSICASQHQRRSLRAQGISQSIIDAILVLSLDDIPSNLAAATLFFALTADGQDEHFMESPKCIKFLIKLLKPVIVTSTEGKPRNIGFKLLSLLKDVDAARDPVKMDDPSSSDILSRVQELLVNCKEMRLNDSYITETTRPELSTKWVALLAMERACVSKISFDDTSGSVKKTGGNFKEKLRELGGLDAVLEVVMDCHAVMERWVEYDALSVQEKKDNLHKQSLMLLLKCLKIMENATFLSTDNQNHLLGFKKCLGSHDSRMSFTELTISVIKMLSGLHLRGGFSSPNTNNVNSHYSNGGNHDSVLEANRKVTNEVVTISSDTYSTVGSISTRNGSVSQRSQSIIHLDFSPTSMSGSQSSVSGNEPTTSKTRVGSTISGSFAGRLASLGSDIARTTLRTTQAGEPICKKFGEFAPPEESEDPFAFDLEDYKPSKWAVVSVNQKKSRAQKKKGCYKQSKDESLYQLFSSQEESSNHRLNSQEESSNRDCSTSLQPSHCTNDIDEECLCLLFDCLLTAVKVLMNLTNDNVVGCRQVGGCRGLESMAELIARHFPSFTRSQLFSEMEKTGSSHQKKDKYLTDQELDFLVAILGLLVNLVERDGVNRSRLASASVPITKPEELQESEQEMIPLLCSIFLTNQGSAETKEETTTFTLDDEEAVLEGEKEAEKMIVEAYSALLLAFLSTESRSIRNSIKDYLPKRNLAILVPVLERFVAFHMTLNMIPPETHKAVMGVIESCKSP

binding [1]: no binding
binding [2]: no binding
B1: SWITCH 1/DYAD (SWI1), yeast two-hybrid fusion (protein, UniProt Q9FGN8 1-639)
chain: MSSTMFVKRNPIRETTAGKISSPSSPTLNVAVAHIRAGSYYEIDASILPQRSPENLKSIRVVMVSKITASDVSLRYPSMFSLRSHFDYSRMNRNKPMKKRSGGGLLPVFDESHVMASELAGDLLYRRIAPHELSMNRNSWGFWVSSSSRRNKFPRREVVSQPAYNTRLCRAASPEGKCSSELKSGGMIKWGRRLRVQYQSRHIDTRKNKEGEESSRVKDEVYKEEEMEKEEDDDDGNEIGGTKQEAKEITNGNRKRKLIESSTERLAQKAKVYDQKKETQIVVYKRKSERKFIDRWSVERYKLAERNMLKVMKEKNAVFGNSILRPELRSEARKLIGDTGLLDHLLKHMAGKVAPGGQDRFMRKHNADGAMEYWLESSDLIHIRKEAGVKDPYWTPPPGWKLGDNPSQDPVCAGEIRDIREELASLKRELKKLASKKEEEELVIMTTPNSCVTSQNDNLMTPAKEIYADLLKKKYKIEDQLVIIGETLRKMEEDMGWLKKTVDENYPKKPDSTETPLLLEDSPPIQTLEGEVKVVNKGNQITESPQNREKGRKHDQQERSPLSLISNTGFRICRPVGMFAWPQLPALAAATDTNASSPSHRQAYPSPFPVKPLAAKRPLGLTFPFTIIPEEAPKNLFNV
